Article PMC11963299
No constants are given. Whether binding was seen depends on the method and setting. In cells and extracts the contact can be indirect. Some binding calls cover weakened binding; strength is not graded here.

The chains behind the UniProt entries cited, without tags or fusion partners.
UniProt O54791: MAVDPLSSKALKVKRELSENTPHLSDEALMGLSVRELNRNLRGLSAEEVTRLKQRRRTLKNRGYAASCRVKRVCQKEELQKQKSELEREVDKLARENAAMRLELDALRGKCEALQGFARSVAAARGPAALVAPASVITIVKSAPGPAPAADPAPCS
UniProt P97302: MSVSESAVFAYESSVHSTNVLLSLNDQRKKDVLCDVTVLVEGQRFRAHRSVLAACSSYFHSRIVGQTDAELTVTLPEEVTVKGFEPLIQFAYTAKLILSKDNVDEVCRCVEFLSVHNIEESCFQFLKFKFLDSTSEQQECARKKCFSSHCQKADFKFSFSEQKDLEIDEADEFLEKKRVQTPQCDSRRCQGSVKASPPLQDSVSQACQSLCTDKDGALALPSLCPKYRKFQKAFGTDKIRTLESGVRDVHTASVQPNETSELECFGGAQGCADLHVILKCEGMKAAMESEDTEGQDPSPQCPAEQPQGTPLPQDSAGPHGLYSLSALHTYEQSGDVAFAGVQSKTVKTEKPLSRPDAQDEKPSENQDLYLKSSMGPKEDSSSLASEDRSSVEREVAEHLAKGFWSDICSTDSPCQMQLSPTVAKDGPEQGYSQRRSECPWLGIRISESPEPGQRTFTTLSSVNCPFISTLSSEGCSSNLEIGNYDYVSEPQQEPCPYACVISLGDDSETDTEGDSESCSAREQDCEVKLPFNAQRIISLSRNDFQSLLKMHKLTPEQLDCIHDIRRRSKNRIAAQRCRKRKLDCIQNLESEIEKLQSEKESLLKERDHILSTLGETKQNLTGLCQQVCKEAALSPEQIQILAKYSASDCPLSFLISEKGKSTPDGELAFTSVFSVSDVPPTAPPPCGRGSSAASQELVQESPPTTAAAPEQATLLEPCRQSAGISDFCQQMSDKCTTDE

Target: v-maf musculoaponeurotic fibrosarcoma oncogene homolog F (MAFF) (mouse (endogenous in AML12 cells / hepatocytes)) (UniProt O54791)
Assay: co-IP; cellular lysates of hepatocytes after H/R incubated with anti-MAFF, anti-Bach1 or rabbit IgG (4.0 ug) at 4 C overnight, protein A/G magnetic beads 2 h, western blotting

binding: binds
Substance: BTB and CNC homology 1 (BACH1) (from UniProt P97302 1-739)
